The source gives many values for each of these; only a part stands here.
Key:
Assay type in all cases: cell-based
Settings in all cases: U-87MG ATCC
[1] = Inhibition of RTK/PI3K/AKT/mTOR signaling in human U87 cells assessed as up regulation of GNB1 gene expression at cytotoxic IC50 measured after 48 hrs relative to control
[2] = Inhibition of RTK/PI3K/AKT/mTOR signaling in human U87 cells assessed as down regulation of PITHD1 gene expression at cytotoxic IC50 measured after 48 hrs relative to control
[3] = Inhibition of RTK/PI3K/AKT/mTOR signaling in human U87 cells assessed as up regulation of abhydrolase domain containing 10 gene expression at cytotoxic IC50 measured after 48 hrs relative to control
[4] = Inhibition of RTK/PI3K/AKT/mTOR signaling in human U87 cells assessed as down regulation of LAMA3 gene expression at cytotoxic IC50 measured after 48 hrs relative to control
[5] = Inhibition of RTK/PI3K/AKT/mTOR signaling in human U87 cells assessed as up regulation of serine/threonine kinase 36 gene expression at cytotoxic IC50 measured after 48 hrs relative to control
[6] = Inhibition of RTK/PI3K/AKT/mTOR signaling in human U87 cells assessed as up regulation of thymidine phosphorylase gene expression at cytotoxic IC50 measured after 48 hrs relative to control
[7] = Inhibition of RTK/PI3K/AKT/mTOR signaling in human U87 cells assessed as down regulation of CLPTM1 gene expression at cytotoxic IC50 measured after 48 hrs relative to control
[8] = Inhibition of RTK/PI3K/AKT/mTOR signaling in human U87 cells assessed as down regulation of RPAP3 gene expression at cytotoxic IC50 measured after 48 hrs relative to control
[9] = Inhibition of RTK/PI3K/AKT/mTOR signaling in human U87 cells assessed as up regulation of ADGRF1 gene expression at cytotoxic IC50 measured after 48 hrs relative to control
[10] = Inhibition of RTK/PI3K/AKT/mTOR signaling in human U87 cells assessed as up regulation of INSIG2 gene expression at cytotoxic IC50 measured after 48 hrs relative to control
[11] = Inhibition of RTK/PI3K/AKT/mTOR signaling in human U87 cells assessed as down regulation of SRP68 gene expression at cytotoxic IC50 measured after 48 hrs relative to control
[12] = Inhibition of RTK/PI3K/AKT/mTOR signaling in human U87 cells assessed as up regulation of nuclear receptor subfamily 2 group F member 6 gene expression at cytotoxic IC50 measured after 48 hrs relative to control
[13] = Inhibition of RTK/PI3K/AKT/mTOR signaling in human U87 cells assessed as up regulation of AKT serine/threonine kinase 2 gene expression at cytotoxic IC50 measured after 48 hrs relative to control
[14] = Inhibition of RTK/PI3K/AKT/mTOR signaling in human U87 cells assessed as up regulation of SLC25A5 gene expression at cytotoxic IC50 measured after 48 hrs relative to control
[15] = Inhibition of RTK/PI3K/AKT/mTOR signaling in human U87 cells assessed as up regulation of TMEM125 gene expression at cytotoxic IC50 measured after 48 hrs relative to control
[16] = Inhibition of RTK/PI3K/AKT/mTOR signaling in human U87 cells assessed as down regulation of GSKIP gene expression at cytotoxic IC50 measured after 48 hrs relative to control
[17] = Inhibition of RTK/PI3K/AKT/mTOR signaling in human U87 cells assessed as up regulation of VEGFB gene expression at cytotoxic IC50 measured after 48 hrs relative to control
[18] = Inhibition of RTK/PI3K/AKT/mTOR signaling in human U87 cells assessed as up regulation of GJB2 gene expression at cytotoxic IC50 measured after 48 hrs relative to control
[19] = Inhibition of RTK/PI3K/AKT/mTOR signaling in human U87 cells assessed as down regulation of MPV17L2 gene expression at cytotoxic IC50 measured after 48 hrs relative to control
[20] = Inhibition of RTK/PI3K/AKT/mTOR signaling in human U87 cells assessed as up regulation of digestive organ expansion factor homolog (zebrafish) gene expression at cytotoxic IC50 measured after 48 hrs relative to control
[21] = Inhibition of RTK/PI3K/AKT/mTOR signaling in human U87 cells assessed as down regulation of SIK2 gene expression at cytotoxic IC50 measured after 48 hrs relative to control
[22] = Inhibition of RTK/PI3K/AKT/mTOR signaling in human U87 cells assessed as down regulation of LAMP1 gene expression at cytotoxic IC50 measured after 48 hrs relative to control
[23] = Inhibition of RTK/PI3K/AKT/mTOR signaling in human U87 cells assessed as up regulation of translocase of outer mitochondrial membrane 20 gene expression at cytotoxic IC50 measured after 48 hrs relative to control
[24] = Inhibition of RTK/PI3K/AKT/mTOR signaling in human U87 cells assessed as down regulation of SDCBP gene expression at cytotoxic IC50 measured after 48 hrs relative to control
[25] = Inhibition of RTK/PI3K/AKT/mTOR signaling in human U87 cells assessed as down regulation of FARP2 gene expression at cytotoxic IC50 measured after 48 hrs relative to control
[26] = Inhibition of RTK/PI3K/AKT/mTOR signaling in human U87 cells assessed as up regulation of ATPase phospholipid transporting 11A gene expression at cytotoxic IC50 measured after 48 hrs relative to control
[27] = Inhibition of RTK/PI3K/AKT/mTOR signaling in human U87 cells assessed as down regulation of GADD45A gene expression at cytotoxic IC50 measured after 48 hrs relative to control
[28] = Inhibition of RTK/PI3K/AKT/mTOR signaling in human U87 cells assessed as up regulation of LOXL4 gene expression at cytotoxic IC50 measured after 48 hrs relative to control
[29] = Inhibition of RTK/PI3K/AKT/mTOR signaling in human U87 cells assessed as down regulation of CNKSR1 gene expression at cytotoxic IC50 measured after 48 hrs relative to control
[30] = Inhibition of RTK/PI3K/AKT/mTOR signaling in human U87 cells assessed as up regulation of tripartite motif containing 47 gene expression at cytotoxic IC50 measured after 48 hrs relative to control
[31] = Inhibition of RTK/PI3K/AKT/mTOR signaling in human U87 cells assessed as up regulation of DnaJ heat shock protein family (Hsp40) member C10 gene expression at cytotoxic IC50 measured after 48 hrs relative to control
[32] = Inhibition of RTK/PI3K/AKT/mTOR signaling in human U87 cells assessed as down regulation of NUP98 gene expression at cytotoxic IC50 measured after 48 hrs relative to control

## CC(=O)C(=NNc1ccccc1C#N)C(C)=O
[1]
  log2FC: 0.507
[2]
  log2FC: -1.33
[3]
  log2FC: 0.768
[4]
  log2FC: -0.893
[5]
  log2FC: 1.27
[6]
  log2FC: 1.55
[7]
  log2FC: -0.431
[8]
  log2FC: -0.561
[9]
  log2FC: 3.07
[10]
  log2FC: 1.92
[11]
  log2FC: -0.483
[12]
  log2FC: 0.764
[13]
  log2FC: 0.727
[14]
  log2FC: 0.541
[15]
  log2FC: 2.02
[16]
  log2FC: -1.76
[17]
  log2FC: 2.04
[18]
  log2FC: 1.66
[19]
  log2FC: -1.19
[20]
  log2FC: 0.744
[21]
  log2FC: -0.822
[22]
  log2FC: -0.707
[23]
  log2FC: 1.12
[24]
  log2FC: -0.772
[25]
  log2FC: -1.04
[26]
  log2FC: 0.909
[27]
  log2FC: -1.02
[28]
  log2FC: 1.76
[29]
  log2FC: -0.809
[30]
  log2FC: 1.1
[31]
  log2FC: 0.801
[32]
  log2FC: -0.424

Source: ChEMBL document CHEMBL4316593 (Eur J Med Chem, 2019)
